Literature values as cited in patent US20140037729A1, “COMBINATION OF AN OPIOID AGONIST AND AN OPIOID ANTAGONIST IN THE TREATMENT OF PARKINSON'S DISEASE” (Euro-Celtique, S.A., priority 2010, published 2014).

Tested on: parkinsonian patients
Details: at very low doses; Berg et al. 1999

SMILES: CN1CC[C@]23c4c5ccc(O)c4O[C@H]2[C@@H](O)C=C[C@H]3[C@H]1C5 [morphine]
- dyskinetic movements: decrease in dyskinetic movements
